Reference: US6103733A, “Method for increasing HDL cholesterol levels using heteroaromatic phenylmethanes” (priority 1998, dated 2000)
At least one compound was matched to its structure with a doubt left.

How the values were obtained:
HDL-cholesterol = experiment: Serum HDL-cholesterol level after feeding of the compound over 8 days; assay type: in vivo; conditions: feeding over 8 days, rats; in words
Description: FIG. 2 represents a fold increase of HDL-cholesterol per compound;
We have invented a family of related compounds which cause a significant pharmacological elevation of serum high density lipoprotein (HDL-cholesterol) concentration from 20% to greater than 200%. […] The effect on HDL cholesterol was paralleled by an elevation in the level of apoprotein A1 (a protein component of HDL) and by elevation of apo A1 messenger RNA in treated animals.
The effect of CYP3A inducers on levels of HDL-cholesterol was determined by administration of the compound by feeding over 8 days followed by sacrifice of the animal and determination of HDL-cholesterol levels. The effects of benzylimidazole (IV), clotrimazole, the five high magnitude CYP3A inducers and four compounds showing intermediate CYP3A inducing activity were evaluated. […] The significant linear correlation between the increase in HDL-cholesterol and the increase in ethosuximide clearance is shown in FIG. 3, and supports the belief that the activities are related.

CYP3A = CYP3A induction measured as increase in rate of ethosuximide clearance after 8-day pretreatment; assay type: in vivo, rats; conditions: structure-activity statement in words
Experimental: FIG. 1 represents a fold increase in ethosuxinide clearances following an 8-day pretreatment schedule of the azoles;
Using clotrimazole (Compound (III)) as a lead compound, the effect of structure on the ability of a compound to induce CYP3A activity was determined, as measured by the test compound's ability to increase the rate of ethosuximide clearance. Over 40 structural modifications of clotrimazole were tested and significant differences in the ability to induce CYP3A activity was observed.
Analysis of the effect of substitution on the ability of a compound to induce CYP3A activity enables us to propose requirements for the induction in vivo. First, a heteroaromatic nucleus containing basic nitrogen must be present. Significant activity (i.e. >2 fold increase in ethosuximide clearance) is achieved only using substituted imidazoles, 2-methylimidazole (XIV), or in one case, pyridine (XVI). […] A variety of substituents were introduced into a single aryl ring of triphenylmethylimidazole. Most of the monosubstituted 1-triphenylmethylimidazoles produced inducing activity lower than that measured for the unsubstituted member of the series, regardless of the nature of the substituent. […]

With `c1ccc(Cn2ccnc2)cc1` [IV, benzylimidazole] the “effect on HDL-cholesterol” value (HDL-cholesterol) was “significant effect on HDL-cholesterol” and the CYP3A inducing activity (CYP3A) was “progressively lost”.
